These results are taken from the supplement of paper PMC7666118.

The chains behind the UniProt entries cited, without tags or fusion partners. Where a name states a change or a piece, a line headed by the entry shows the natural chain unless it says otherwise.
UniProt Q8N3U4: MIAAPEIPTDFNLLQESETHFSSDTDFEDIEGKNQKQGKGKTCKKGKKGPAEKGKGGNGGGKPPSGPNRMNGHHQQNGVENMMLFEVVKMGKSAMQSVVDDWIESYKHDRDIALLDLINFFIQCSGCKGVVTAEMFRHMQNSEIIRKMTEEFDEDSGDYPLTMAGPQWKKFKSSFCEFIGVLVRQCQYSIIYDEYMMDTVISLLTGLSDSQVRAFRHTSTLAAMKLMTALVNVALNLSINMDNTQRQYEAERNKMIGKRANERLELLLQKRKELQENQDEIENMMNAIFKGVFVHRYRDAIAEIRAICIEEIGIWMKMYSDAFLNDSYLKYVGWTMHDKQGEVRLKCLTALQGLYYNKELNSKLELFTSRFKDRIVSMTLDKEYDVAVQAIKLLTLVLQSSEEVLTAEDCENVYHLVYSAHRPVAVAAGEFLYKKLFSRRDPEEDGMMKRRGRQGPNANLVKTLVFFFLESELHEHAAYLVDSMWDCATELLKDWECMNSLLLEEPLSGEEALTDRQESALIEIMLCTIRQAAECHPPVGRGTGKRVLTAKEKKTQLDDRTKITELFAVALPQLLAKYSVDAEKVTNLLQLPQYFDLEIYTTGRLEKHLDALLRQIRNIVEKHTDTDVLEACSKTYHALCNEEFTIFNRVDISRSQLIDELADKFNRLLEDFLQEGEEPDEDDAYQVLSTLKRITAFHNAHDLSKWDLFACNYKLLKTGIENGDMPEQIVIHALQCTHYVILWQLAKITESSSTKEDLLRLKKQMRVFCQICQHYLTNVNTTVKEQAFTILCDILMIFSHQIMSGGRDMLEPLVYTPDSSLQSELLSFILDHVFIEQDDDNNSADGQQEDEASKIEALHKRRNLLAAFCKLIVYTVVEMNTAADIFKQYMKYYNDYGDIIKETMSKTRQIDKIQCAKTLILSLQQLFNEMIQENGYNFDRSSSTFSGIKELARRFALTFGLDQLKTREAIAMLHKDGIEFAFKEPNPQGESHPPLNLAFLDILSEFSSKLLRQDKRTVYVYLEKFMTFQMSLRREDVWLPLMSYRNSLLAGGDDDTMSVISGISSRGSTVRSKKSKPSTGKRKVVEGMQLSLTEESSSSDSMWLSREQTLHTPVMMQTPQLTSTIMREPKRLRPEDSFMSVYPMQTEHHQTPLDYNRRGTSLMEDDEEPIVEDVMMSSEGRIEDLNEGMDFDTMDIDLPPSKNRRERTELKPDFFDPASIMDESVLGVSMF
UniProt O95391: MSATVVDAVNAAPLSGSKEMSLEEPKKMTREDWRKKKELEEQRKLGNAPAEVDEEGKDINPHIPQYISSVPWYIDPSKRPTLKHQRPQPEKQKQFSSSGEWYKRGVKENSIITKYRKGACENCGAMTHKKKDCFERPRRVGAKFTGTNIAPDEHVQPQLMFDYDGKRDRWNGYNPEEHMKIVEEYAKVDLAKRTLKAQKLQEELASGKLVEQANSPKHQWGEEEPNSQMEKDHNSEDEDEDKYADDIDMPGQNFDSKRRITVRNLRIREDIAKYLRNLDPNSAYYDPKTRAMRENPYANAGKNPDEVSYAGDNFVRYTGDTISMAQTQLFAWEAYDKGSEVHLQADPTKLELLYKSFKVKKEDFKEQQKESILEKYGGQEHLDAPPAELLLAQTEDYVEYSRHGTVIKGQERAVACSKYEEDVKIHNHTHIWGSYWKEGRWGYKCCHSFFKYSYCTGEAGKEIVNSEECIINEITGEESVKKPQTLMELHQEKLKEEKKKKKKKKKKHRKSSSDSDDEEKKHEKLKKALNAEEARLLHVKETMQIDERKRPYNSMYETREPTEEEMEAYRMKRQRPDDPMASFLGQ
UniProt Q9NZD8: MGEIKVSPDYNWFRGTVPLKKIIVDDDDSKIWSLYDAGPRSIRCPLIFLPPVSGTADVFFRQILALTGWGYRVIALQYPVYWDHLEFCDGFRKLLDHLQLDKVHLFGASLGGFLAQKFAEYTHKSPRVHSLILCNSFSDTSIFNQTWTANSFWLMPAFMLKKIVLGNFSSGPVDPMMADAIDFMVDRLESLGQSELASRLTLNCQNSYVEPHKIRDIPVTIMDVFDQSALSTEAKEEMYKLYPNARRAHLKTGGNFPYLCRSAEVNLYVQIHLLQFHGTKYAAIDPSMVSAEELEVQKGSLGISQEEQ
UniProt Q9Y6N5: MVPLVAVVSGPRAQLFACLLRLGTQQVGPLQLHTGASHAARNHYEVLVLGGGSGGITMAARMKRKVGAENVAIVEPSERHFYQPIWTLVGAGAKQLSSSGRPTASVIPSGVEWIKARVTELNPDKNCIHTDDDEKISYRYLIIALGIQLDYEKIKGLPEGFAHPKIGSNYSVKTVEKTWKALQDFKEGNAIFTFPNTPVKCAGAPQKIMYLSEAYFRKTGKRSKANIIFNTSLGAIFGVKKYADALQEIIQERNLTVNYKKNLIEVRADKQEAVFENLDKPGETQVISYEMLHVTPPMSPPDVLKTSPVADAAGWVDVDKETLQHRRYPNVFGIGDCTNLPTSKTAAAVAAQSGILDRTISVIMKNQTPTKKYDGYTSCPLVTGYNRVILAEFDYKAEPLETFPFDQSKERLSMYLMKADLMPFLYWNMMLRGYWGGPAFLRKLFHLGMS
UniProt P51571: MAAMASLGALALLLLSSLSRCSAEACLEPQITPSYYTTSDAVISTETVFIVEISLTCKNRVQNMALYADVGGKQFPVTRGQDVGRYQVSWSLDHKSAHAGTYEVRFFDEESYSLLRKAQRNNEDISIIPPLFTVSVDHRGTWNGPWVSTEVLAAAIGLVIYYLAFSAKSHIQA
UniProt P35610: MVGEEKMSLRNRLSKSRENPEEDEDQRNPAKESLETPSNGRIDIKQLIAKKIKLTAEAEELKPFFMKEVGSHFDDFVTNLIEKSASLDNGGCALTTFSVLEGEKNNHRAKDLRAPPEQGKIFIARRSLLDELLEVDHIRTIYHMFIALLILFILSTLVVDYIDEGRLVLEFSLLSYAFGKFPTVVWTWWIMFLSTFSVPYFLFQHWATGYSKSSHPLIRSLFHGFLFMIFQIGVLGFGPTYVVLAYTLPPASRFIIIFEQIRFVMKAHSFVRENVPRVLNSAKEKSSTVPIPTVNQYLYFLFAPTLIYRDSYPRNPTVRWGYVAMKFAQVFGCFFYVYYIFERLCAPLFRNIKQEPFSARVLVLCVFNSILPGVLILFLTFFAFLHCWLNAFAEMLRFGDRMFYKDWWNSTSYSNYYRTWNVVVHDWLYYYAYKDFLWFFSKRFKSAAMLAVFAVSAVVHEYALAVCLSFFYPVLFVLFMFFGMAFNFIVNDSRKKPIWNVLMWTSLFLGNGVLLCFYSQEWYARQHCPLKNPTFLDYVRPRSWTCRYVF
UniProt O43609: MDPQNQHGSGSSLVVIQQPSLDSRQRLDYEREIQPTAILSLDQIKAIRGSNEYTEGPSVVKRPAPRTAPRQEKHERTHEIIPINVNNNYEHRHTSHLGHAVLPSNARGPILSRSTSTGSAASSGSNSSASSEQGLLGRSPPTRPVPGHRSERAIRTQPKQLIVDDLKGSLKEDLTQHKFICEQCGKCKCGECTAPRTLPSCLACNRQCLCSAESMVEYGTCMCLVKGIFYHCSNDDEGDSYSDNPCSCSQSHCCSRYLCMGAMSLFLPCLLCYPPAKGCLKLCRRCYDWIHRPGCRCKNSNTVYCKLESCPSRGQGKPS
UniProt Q16560: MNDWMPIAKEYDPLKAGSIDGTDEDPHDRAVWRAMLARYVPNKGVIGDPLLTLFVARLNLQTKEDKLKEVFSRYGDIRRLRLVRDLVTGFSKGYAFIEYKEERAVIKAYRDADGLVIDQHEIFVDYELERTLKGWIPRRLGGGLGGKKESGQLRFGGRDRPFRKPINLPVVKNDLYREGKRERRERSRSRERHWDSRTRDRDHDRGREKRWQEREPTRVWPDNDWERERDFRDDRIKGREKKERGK
UniProt Q00796: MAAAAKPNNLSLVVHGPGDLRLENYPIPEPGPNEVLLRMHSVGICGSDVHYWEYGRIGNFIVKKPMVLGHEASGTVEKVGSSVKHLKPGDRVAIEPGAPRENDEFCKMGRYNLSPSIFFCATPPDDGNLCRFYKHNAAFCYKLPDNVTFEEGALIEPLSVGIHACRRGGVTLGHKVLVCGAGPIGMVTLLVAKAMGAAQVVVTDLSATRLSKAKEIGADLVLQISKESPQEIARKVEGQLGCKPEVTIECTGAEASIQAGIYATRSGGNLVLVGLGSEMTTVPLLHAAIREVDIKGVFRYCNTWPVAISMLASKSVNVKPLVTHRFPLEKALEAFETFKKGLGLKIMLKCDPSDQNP
UniProt Q86TM6, whole entry: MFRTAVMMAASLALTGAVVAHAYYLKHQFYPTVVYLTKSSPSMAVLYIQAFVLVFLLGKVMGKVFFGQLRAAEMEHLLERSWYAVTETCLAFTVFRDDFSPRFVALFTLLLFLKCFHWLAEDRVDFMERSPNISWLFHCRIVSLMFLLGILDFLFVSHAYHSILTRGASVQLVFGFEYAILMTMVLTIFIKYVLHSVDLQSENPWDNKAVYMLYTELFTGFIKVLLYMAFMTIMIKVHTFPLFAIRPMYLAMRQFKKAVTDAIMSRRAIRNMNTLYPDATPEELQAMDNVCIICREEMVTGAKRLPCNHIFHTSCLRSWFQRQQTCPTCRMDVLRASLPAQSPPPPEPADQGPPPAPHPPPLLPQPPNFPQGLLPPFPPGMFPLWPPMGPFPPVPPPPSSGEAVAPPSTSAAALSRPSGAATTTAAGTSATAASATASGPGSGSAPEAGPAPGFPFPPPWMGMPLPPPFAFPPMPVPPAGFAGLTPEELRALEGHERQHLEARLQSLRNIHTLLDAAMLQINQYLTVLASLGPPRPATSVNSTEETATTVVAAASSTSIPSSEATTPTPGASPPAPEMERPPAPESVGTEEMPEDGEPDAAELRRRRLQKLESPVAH
UniProt Q12962, whole entry: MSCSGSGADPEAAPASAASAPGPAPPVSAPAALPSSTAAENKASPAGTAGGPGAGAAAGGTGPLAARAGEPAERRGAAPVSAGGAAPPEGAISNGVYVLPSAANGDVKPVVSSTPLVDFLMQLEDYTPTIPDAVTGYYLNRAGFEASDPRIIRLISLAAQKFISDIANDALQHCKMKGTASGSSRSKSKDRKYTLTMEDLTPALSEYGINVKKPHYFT
UniProt Q86Y82: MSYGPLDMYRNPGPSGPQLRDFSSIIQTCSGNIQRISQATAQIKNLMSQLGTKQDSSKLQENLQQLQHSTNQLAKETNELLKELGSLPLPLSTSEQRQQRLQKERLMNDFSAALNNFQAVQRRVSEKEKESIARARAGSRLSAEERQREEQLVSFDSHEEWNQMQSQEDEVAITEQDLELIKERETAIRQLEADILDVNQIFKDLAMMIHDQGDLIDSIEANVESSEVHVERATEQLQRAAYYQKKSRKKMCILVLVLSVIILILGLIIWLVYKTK
UniProt O95347, whole entry: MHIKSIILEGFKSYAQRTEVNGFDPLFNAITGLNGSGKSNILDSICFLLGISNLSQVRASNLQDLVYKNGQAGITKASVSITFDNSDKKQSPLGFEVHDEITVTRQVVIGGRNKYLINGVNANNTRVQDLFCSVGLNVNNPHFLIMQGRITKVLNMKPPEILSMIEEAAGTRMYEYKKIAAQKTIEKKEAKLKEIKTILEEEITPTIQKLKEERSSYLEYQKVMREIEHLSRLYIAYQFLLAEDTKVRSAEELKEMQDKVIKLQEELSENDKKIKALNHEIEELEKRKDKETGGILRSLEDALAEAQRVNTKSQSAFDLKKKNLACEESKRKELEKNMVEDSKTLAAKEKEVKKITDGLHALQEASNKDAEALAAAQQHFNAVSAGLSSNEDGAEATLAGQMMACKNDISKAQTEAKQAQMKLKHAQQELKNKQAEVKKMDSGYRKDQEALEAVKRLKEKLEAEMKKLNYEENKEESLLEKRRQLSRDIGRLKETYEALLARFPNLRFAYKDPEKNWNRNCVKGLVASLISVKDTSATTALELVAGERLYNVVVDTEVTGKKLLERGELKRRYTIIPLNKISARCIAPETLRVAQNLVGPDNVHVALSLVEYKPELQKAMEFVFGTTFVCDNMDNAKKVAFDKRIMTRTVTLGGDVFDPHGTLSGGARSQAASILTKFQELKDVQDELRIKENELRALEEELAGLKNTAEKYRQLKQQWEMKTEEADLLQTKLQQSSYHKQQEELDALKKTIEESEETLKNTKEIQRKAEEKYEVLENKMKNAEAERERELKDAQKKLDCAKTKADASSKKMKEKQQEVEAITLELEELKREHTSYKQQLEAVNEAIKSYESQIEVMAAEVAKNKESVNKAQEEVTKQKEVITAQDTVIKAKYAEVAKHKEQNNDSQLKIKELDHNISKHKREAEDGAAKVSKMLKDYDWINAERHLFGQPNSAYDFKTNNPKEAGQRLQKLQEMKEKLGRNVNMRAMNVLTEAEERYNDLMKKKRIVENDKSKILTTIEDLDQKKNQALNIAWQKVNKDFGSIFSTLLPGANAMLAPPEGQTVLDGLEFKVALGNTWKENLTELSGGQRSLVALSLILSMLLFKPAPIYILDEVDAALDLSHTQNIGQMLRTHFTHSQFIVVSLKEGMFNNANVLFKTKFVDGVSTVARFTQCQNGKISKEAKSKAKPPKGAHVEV

The other results are listed elsewhere or left out.

Compound in this assay: COc1ccc(Cn2ccc3ccc(C(=O)NO)cc32)cc1
The experiment in a line: dose-dependent thermal stabilisation call (2D-TPP, DLPTP, 10% FDR) (binary (1 = stabilised)); higher = stabilised by the compound. To be noted: system: HL-60 intact cells; concentration range 0.04-10 µM.
For the target SP4 (UniProt Q02446), the “dose-dependent thermal stabilisation call” value is inactive: 0.

Regarding SPRYD4 (UniProt Q8WW59), the “dose-dependent thermal stabilisation call” value is inactive: 0.

In the case of STK24 (UniProt Q9Y6E0), the “dose-dependent thermal stabilisation call” value is inactive: 0.

With SNRPD3 (UniProt P62318), the “dose-dependent thermal stabilisation call” value was inactive: 0.

As for STAG2 (UniProt Q8N3U4), the “dose-dependent thermal stabilisation call” value is inactive: 0.

Take SLU7 (UniProt O95391): the “dose-dependent thermal stabilisation call” value is inactive: 0.

For SPG21 (UniProt Q9NZD8), the “dose-dependent thermal stabilisation call” value is inactive: 0.

SLFN13 (UniProt Q68D06): the “dose-dependent thermal stabilisation call” value is inactive: 0.

Turning to SRD5A3 (UniProt Q9H8P0), the “dose-dependent thermal stabilisation call” value was inactive: 0.

Take SRI (UniProt P30626): the “dose-dependent thermal stabilisation call” value is inactive: 0.

For SQRDL (UniProt Q9Y6N5), the “dose-dependent thermal stabilisation call” value is inactive: 0.

For the target SSR4 (UniProt P51571), the “dose-dependent thermal stabilisation call” value is inactive: 0.

In the case of SOAT1 (UniProt P35610), the “dose-dependent thermal stabilisation call” value is inactive: 0.

On to SNX27 (UniProt Q96L92), for which the “dose-dependent thermal stabilisation call” value is inactive: 0.

Turning to SNX2 (UniProt O60749), the “dose-dependent thermal stabilisation call” value was inactive: 0.

Take STXBP3 (UniProt O00186): the “dose-dependent thermal stabilisation call” value was inactive: 0.

Turning to SURF1 (UniProt Q15526), the “dose-dependent thermal stabilisation call” value was inactive: 0.

SNRPE (UniProt P62304): the “dose-dependent thermal stabilisation call” value was inactive: 0.

In the case of SPRY1 (UniProt O43609), the “dose-dependent thermal stabilisation call” value was inactive: 0.

For SNRNP35 (UniProt Q16560), the “dose-dependent thermal stabilisation call” value is inactive: 0.

With SLC9A6 (UniProt Q92581), the “dose-dependent thermal stabilisation call” value was inactive: 0.

In the case of SOS1 (UniProt Q07889), the “dose-dependent thermal stabilisation call” value was inactive: 0.

Turning to SORD (UniProt Q00796), the “dose-dependent thermal stabilisation call” value is inactive: 0.

Consider SRP09, for which the “dose-dependent thermal stabilisation call” value is inactive: 0.

SYVN1 (UniProt Q86TM6): the “dose-dependent thermal stabilisation call” value was inactive: 0.

With TAF10 (UniProt Q12962), the “dose-dependent thermal stabilisation call” value was inactive: 0.

For STX12 (UniProt Q86Y82), the “dose-dependent thermal stabilisation call” value is inactive: 0.

On to TACC3 (UniProt Q9Y6A5), for which the “dose-dependent thermal stabilisation call” value was inactive: 0.

Regarding SSRP1 (UniProt Q08945), the “dose-dependent thermal stabilisation call” value was inactive: 0.

For STK35 (UniProt Q8TDR2), the “dose-dependent thermal stabilisation call” value is inactive: 0.

For the target STX7 (UniProt O15400), the “dose-dependent thermal stabilisation call” value is inactive: 0.

On to SWAP70 (UniProt Q9UH65), for which the “dose-dependent thermal stabilisation call” value was inactive: 0.

As to SUFU (UniProt Q9UMX1), the “dose-dependent thermal stabilisation call” value was inactive: 0.

As for SMYD3 (UniProt Q9H7B4), the “dose-dependent thermal stabilisation call” value was inactive: 0.

Consider SMC2 (UniProt O95347), for which the “dose-dependent thermal stabilisation call” value is inactive: 0.

As for TAF2 (UniProt Q6P1X5), the “dose-dependent thermal stabilisation call” value is inactive: 0.

For the target SMG1 (UniProt Q96Q15), the “dose-dependent thermal stabilisation call” value is inactive: 0.

In the case of SSR1 (UniProt P43307), the “dose-dependent thermal stabilisation call” value was inactive: 0.
